{"source": "patent US7678368B2", "about": "“Fucoidan-containing cosmetics” (Takara Bio Inc., priority 1999, dated 2010)", "test_system": "C3H/He mice", "experiment": "Trichogenous ratio, Fucoidan Bf combined with carpronium chloride or minoxidil (Example 19)", "format": "in vivo, mouse", "experimental": "Male C3H/He mice were purchased from Nippon SLC and used for an experiment from 8 week-old after pre-breeding the mice. The hair on the backside of each mouse was cut with hair clippers, and thereafter shaved with a razor. […] The resulting ethanol solution was applied onto the above hair-cut site of the backside of the mice in an amount of 200 μL per mouse. To the control group, 30% ethanol solution was similarly applied. The mice were administered once a day, for consecutive days. The administered sites were observed over the passage of time from the day of the beginning of administration (the day following the shaving), and the trichogenous area was determined on the twenty-first day after shaving and expressed as the ratio (%) to the shaved area.", "note": "At least one compound was matched to its structure with a doubt left.", "data": [{"smiles": "Nc1cc(N2CCCCC2)nc(N)[n+]1[O-]", "note": "[Minoxidil, minoxidil]", "values": [{"measurement": "hair restoring effect", "setting": "alone at a concentration of 0.1%", "result": "weak"}, {"measurement": "hair restoring effect", "setting": "alone at a concentration of 1%", "result": "a hair restoring effect was found"}]}]}
